PubChem BioAssay AID1259405 – NCATS, 2018
Purpose: 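Knock-downs that lift recombinant protein yield in hamster ovary cells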 (primary screen). Cell system: Chinese hamster CHO-K1 ovary cells with stable secreted eGFP expression. Reagent: single siRNA against mouse genes, 0.8 pmol siRNA per well (2 µl of 400 nM stock). Duration: 3 days. Measured: 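Percent of the per-plate non-targeting control median for intracellular GFP per well by laser scanning cytometry and for cell viability by ATP luminescence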. Direction: GFP, % of control: higher = more GFP per well, higher productivity. Hit rule: 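a knock-down is called active if GFP reaches 120% or more of non-targeting control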.
Shown is a random part of about 50,000 reagents. About 4,000 of all reagents (8%) were called active. 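Mouse siRNA library applied to hamster cells; one well for each siRNA.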 Entries without a mark were called inactive. Not all columns of the deposit are shown.

GFP, % of control, by gene and reagent
Or10j3b (GeneID 258881): SID363544489 105; SID363550817 76.6; SID363557366 68.4
Ipo13 (GeneID 230673): SID363574798 89.5; SID363575854 116; SID363580430 79.7
Ubash3b (GeneID 72828): SID363543938 75; SID363551674 68.5; SID363559279 105
Tecrl (GeneID 243078): SID363556520 68.3; SID363586970 75.7; SID363589078 198 (active)
Pitx1 (GeneID 18740): SID363569295 92.7; SID363583727 72.1
Hibadh (GeneID 58875): SID363575067 129 (active); SID363580699 66; SID363582811 86.4
Cpb2 (GeneID 56373): SID363574274 113; SID363575330 94.2; SID363579906 139 (active)
Tert (GeneID 21752): SID363568966 98.1; SID363583398 56.6

Records listed so far marked active (3):
GFP, % of control, by gene and reagent
Tecrl (GeneID 243078): SID363589078 198 (active)
Hibadh (GeneID 58875): SID363575067 129 (active)
Cpb2 (GeneID 56373): SID363579906 139 (active)

Next records follow:
GFP, % of control, by gene and reagent
1700010H22Rik (GeneID 75500): SID363540858 74.5; SID363543309 69.8; SID363552802 76.5
Or9m1 (GeneID 258641): SID363544582 123 (active); SID363550910 60.7; SID363557459 57.7
Sf3b5 (GeneID 66125): SID363554885 59.5; SID363568332 46.1; SID363586391 97.5
Nodal (GeneID 18119): SID363541379 75.4; SID363556006 80.9; SID363566295 135 (active)
